# Screening data, single-dose tests

The chains behind the UniProt entries cited, without tags or fusion partners. Residues count along the entry.
UniProt I6X8D2, whole entry: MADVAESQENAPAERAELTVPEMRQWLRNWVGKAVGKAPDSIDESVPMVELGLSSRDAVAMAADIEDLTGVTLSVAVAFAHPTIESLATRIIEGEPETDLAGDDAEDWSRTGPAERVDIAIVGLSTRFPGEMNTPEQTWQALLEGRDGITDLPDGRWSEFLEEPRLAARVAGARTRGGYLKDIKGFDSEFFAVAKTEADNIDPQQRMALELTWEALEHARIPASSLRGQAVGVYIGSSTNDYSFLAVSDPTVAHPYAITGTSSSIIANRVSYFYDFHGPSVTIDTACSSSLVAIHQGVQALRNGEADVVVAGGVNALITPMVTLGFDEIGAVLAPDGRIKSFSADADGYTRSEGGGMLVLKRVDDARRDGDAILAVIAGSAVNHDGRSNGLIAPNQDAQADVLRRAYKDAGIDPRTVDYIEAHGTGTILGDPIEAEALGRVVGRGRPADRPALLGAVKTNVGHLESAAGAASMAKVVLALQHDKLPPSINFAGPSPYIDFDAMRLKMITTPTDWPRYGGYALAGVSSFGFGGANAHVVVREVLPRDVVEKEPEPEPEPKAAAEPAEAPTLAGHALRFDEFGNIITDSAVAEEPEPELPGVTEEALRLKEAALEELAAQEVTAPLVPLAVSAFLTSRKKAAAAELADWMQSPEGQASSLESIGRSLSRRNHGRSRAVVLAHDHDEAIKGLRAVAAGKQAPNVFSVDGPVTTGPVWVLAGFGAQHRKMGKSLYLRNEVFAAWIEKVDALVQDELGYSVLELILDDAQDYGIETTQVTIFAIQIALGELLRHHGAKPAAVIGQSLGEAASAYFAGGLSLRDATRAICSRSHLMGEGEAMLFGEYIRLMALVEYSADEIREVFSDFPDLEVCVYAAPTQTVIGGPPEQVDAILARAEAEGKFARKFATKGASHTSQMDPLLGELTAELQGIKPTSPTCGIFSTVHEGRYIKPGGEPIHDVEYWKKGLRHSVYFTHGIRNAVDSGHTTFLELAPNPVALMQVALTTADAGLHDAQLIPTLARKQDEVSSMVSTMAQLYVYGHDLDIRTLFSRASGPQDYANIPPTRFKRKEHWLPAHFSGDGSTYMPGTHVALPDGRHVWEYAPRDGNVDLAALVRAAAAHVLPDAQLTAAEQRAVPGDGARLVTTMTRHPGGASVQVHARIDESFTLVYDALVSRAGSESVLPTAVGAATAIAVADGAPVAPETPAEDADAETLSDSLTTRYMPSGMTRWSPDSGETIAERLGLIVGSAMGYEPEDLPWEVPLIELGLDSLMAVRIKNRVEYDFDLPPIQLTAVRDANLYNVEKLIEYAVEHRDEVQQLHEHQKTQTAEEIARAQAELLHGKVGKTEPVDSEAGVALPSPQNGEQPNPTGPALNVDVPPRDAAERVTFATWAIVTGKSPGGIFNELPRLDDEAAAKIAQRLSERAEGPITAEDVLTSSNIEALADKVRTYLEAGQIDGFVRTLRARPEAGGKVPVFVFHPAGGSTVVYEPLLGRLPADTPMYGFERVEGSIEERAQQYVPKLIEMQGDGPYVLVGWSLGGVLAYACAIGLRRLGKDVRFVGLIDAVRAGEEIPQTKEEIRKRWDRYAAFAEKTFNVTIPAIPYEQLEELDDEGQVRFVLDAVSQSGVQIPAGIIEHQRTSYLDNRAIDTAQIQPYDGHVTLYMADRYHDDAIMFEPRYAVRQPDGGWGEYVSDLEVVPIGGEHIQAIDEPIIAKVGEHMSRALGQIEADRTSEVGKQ
UniProt A4I591, 1-473: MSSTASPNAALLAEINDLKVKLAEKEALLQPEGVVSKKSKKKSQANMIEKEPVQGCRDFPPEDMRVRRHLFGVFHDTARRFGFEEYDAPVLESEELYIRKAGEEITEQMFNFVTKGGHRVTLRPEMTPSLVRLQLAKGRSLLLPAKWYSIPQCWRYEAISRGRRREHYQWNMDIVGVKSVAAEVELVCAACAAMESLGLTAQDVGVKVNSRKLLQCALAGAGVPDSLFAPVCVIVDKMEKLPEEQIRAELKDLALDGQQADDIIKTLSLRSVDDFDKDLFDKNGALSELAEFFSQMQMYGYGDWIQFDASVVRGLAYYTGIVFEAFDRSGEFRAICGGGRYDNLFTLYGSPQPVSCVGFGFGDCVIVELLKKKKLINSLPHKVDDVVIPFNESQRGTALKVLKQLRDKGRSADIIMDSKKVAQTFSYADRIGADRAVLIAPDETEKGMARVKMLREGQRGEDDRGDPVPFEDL
UniProt P9WPC5, whole entry: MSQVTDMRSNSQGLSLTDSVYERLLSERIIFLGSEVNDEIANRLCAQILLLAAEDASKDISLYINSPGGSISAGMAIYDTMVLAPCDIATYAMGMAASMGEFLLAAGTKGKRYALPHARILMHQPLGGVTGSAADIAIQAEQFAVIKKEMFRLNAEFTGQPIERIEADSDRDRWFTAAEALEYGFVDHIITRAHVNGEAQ
UniProt P9WPC3, whole entry partner: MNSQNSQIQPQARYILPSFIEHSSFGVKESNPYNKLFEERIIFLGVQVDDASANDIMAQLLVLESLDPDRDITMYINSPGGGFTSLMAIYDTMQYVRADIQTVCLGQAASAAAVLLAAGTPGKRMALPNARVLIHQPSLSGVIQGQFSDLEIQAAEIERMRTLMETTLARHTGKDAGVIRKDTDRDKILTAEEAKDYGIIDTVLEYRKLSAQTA
UniProt P9WNZ1, whole entry: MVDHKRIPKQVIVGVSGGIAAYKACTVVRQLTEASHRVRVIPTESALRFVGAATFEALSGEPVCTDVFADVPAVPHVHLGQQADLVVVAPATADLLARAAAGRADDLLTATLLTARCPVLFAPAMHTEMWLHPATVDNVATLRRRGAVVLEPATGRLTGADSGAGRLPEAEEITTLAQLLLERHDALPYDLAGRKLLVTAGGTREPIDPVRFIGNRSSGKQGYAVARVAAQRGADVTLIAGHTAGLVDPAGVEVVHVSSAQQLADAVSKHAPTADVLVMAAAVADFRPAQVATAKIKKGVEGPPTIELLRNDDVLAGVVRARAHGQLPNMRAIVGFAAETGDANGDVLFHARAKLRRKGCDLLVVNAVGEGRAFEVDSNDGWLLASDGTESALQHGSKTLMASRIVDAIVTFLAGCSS

The values are deposited in ChEMBL (CHEMBL3988442, “University of Dundee, Small-Polar-MMV Screening Library” (2021)).

Each number is a percent effect as filed.
The controls that fix the scale are not given in the record; negative values are as filed.
This is an unselected part of the compounds tested.
Two or more numbers in one place are separate tests of the same structure; such repeats can differ widely.
A dash means the value is not listed here; it may have been measured.

A: 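Enzyme assay of the thioesterase domain of polyketide synthase 13; the read-out is not stated. Target: Polyketide synthase Pks13, Mycobacterium tuberculosis (UniProt I6X8D2). Compounds at 30 µM. The record gives no direction; the compounds picked for IC50 retests had high values, so higher reads as stronger inhibition. About 67,000 compounds were tested under these conditions; 0.46% (about 300) showed 50% or more at least once.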
B: 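Enzyme assay of histidyl-tRNA synthetase; the read-out is not stated. Target: Histidine-tRNA ligase, Leishmania infantum (UniProt A4I591). Concentration: 30 µM. Higher reads as stronger inhibition (inferred: compounds with an IC50 in retests scored well above the rest). The assay is labelled LdHisRS but filed under L. infantum. Of about 69,000 compounds tested this way, about 410 (0.6%) reached 50% or more in at least one test.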
C: 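Cell assay of Leishmania donovani living inside macrophages; the read-out is not stated. Tested at 30 µM. Direction is inferred from retests: higher values go with stronger inhibition. About 69,000 compounds were tested under these conditions; 1.5% (about 1,000) showed 50% or more at least once.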
D: 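Protease assay of ClpP1P2, read by the AMC dye that it sets free. Target: ClpP1P2, Mycobacterium tuberculosis (UniProt P9WPC5 and UniProt P9WPC3). Compounds at 50 µM. Direction is inferred from only a few compounds that gave an IC50; most scored high, so higher reads as stronger inhibition. Most other retested compounds had strongly negative values. Size under these conditions: about 69,000 compounds, about 10 of them at 50% or above in at least one test.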
E: 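Assay of Toxoplasma gondii numbers, read through their beta-galactosidase reporter with a colour substrate. Concentration: 10 µM. The record gives no direction; the compounds picked for IC50 retests had high values, so higher reads as fewer parasites. About 67,000 compounds were tested under these conditions; 0.38% (about 260) showed 50% or more at least once.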
F: 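Coenzyme A biosynthesis protein CoaBC, Mycobacterium tuberculosis (UniProt P9WNZ1). Enzyme assay of CoaBC with a phosphate dye (Biomol Green) read at 650 nm. Concentration: 30 µM. Higher reads as stronger inhibition, judged from the few compounds that gave an IC50. Most strong results did not repeat in a second test. Of about 67,000 compounds tested this way, about 40 (0.06%) reached 50% or more in at least one test.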

Compound: CCSCCNc1nc(-c2ccccn2)nc2c1c(C)nn2C
A: 8.732%
B: 3.947%
C: -7.906%
D: -6.684%
E: 1.189%
F: -3.548%

Compound: [H][C@@]12C[C@@H](Oc3cccnc3)CN1CCN(Cc1cnn(C)c1)C2
C: -3.593%
E: 8.563%

Compound: [H][C@]12CN(S(=O)(=O)c3ccc(C(=O)NCc4ccc(C)o4)cc3)[C@]([H])(CN1)C2
C: 21.13%
E: -6.047%

Compound: FC1(F)CCN(Cc2ccncc2)CC12CCN(c1cnccn1)C2 (stereo unspecified)
A: 2.368%
B: 20.55%
D: -5.61%
F: 0.3953%

Compound: O=C(CN1CCCNC1=O)Nc1ccccc1SC(F)(F)F
A: -6.379%
B: 35.62%
C: -16.27%
D: 1.384%
E: -12.94%
F: 10.36%

Compound: COc1ccc2c(c1)OCC(C(=O)NCc1ncc3c(n1)CCC3)C2 (stereo unspecified)
A: 4.472%
B: 15%
C: -56.6%
D: 0.9771%
E: 27.42%
F: 7.351%

Compound: CN(C)Cc1cnc(C2CCN(C(=O)c3cc(F)cc(F)c3)C2)[nH]1 (stereo unspecified)
A: 17.78%
B: 7.042%
C: 25.69%
D: -6.162%
E: 32.44%
F: -0.9864%

Compound: [H][C@]12CN(C(C)=O)C[C@@]1([H])OCCN(S(=O)(=O)C1CC1)C2
C: 27.07%
E: -4.78%

Compound: c1ccc(-c2noc(CN3CCc4c(ncn4C4CC4)C3)n2)nc1
A: -36.47%
B: 6.349%
C: 8.474%
D: 1.26%
E: 4.543%
F: 2.269%

Compound: Cc1cnn(CC2CCCN2C(=O)CCc2c(C)noc2Cl)c1 (stereo unspecified)
A: -39.18%
B: 11.43%
C: 18.03%
D: -0.1248%
E: 1.86%
F: 9.852%

Compound: CSCCC(NC(N)=O)C(=O)N1CCC(Cc2ccccc2)CC1 (stereo unspecified)
A: -0.9922%
B: 2.74%
C: -1.381%
D: -2.86%
E: -2.266%
F: 2.686%

Compound: CO[C@H]1CN(C(C)C)C[C@@H]1NC(=O)Nc1cccc(SC)c1
A: 18.69%
B: 3.279%
C: -19.25%
D: 17.59%
E: -10.02%
F: -13.04%

Compound: CCS(=O)(=O)N(C)c1ccc(C(=O)N2CCCC(C)C2)cc1 (stereo unspecified)
A: -23.2%
B: 4.808%
C: 14.33%
D: -2.194%
E: 3.431%
F: 9.283%

Compound: Cc1cc(C(=O)N2CCCC3(COCCN(c4ncccn4)C3)C2)[nH]n1.O=C(O)C(F)(F)F.O=C(O)C(F)(F)F (stereo unspecified)
C: 15.09%
E: 0.3723%

Compound: Cc1ccc(F)cc1-n1c(COC(C)C)n[nH]c1=O
A: -23.09%
B: 8.547%
C: 5.235%
D: -2.765%
E: 3.474%
F: -0.8547%

Compound: O=C(O)C(F)(F)F.[H][C@@]12CNC[C@]1(C(=O)O)CN(C(=O)c1ccccc1-c1ccccc1)C2
C: 13.47% & 14.9%
E: -2.079%

Compound: CN(C)CCNC(=O)c1nc2c(s1)CCCN2C(=O)C1CC1.O=C(O)C(F)(F)F
C: 27.88%
E: 23.48%

Compound: Cc1cnccc1CN(C)C(=O)c1cccc(CCC(C)(C)O)c1
A: -14.01%
B: 12.5%
C: 18.43%
D: 10.7%
E: 3.254%
F: 4.113%

Compound: Cc1cc2nc(C(=O)NCc3cccnc3N(C)C)cc(C)n2n1
A: -6.604%
B: 20.34%
C: 16.69%
D: -5.206%
E: -9.787%
F: -2.886%

Compound: O=C(N1CCN(CCO)CC1)C1(O)Cc2ccccc2C1
A: -13.17%
B: 19.18%
C: -4.418%
D: -10.38%
E: -17.49%
F: 5.578%

Compound: CC(=O)N(Cc1ncc(C(C)C)o1)C1CCN(Cc2ccno2)C1 (stereo unspecified)
A: -18.54%
B: 14.68%
C: 7.537%
D: -13.99%
E: -9.127%
F: 8.095%

Compound: Cc1cc(C)n(CCC(=O)N2CCC(c3nc(C)no3)CC2)n1
A: -21.67%
B: 12.07%
C: 18.65%
D: 10.55%
E: 0.6061%
F: -0.4619%

Compound: Cc1cnc(CN(C)C2CCN(Cc3cnc(C)s3)C2)o1 (stereo unspecified)
B: 12.82%
C: 23% & 8.891%
D: -15.32%
E: -2.77%
F: 3.308%

For reference, 2 entries once more:

| Compound | A | B | C | D | E | F |
|---|---|---|---|---|---|---|
| `[H][C@]12CN(C(C)=O)C[C@@]1([H])OCCN(S(=O)(=O)C1CC1)C2` | - | - | 27.07% | - | -4.78% | - |
| `Cc1cnc(CN(C)C2CCN(Cc3cnc(C)s3)C2)o1` (stereo unspecified) | - | 12.82% | 23% & 8.891% | -15.32% | -2.77% | 3.308% |